{"sequences": {"note": "Amino acid sequences for entries named in this document (tags omitted). A change or cut given only in a name is not applied to a line headed by its entry.", "UniProt F2RGQ4": "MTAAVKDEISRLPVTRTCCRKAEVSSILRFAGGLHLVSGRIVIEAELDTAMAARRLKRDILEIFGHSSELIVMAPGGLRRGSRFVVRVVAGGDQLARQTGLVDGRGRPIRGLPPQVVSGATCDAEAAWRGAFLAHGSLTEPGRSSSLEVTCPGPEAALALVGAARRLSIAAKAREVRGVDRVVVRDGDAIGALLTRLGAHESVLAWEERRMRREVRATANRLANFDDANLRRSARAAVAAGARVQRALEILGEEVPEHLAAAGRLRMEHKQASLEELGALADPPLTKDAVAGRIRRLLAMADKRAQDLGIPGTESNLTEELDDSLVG"}, "source": "paper PMC3781837", "molecular_target": "WhiA (Streptomyces venezuelae) (UniProt F2RGQ4)", "test": "DNase I footprinting", "details": "DNase I footprinting per Sure Track kit (Amersham); recombinant protein; protein details: N-terminal His tag; label: 5' end label (radiolabel); probe letters rebuilt from the primers and the genome", "note": "The exact form of at least one protein or probe is not confirmed.", "data": [{"sequence": "GGATGCATGCCTGCGCACCCTTGACAGAGGGGTGTTCGGTTGCCGACACATCGGGCCGGGTCCGGCGGATTGTGTTGCTGCGGAGCGGTGACACGCCATAGAGTCGCCAACCGTCGGCATGGTGCCACGCTGACCTATCGATAAATGTTCCTGGTGACATCCAAGGAGGTAAGACGAC (double strand) [sven1406 promoter probe]", "values": [{"measurement": "binding result", "value": "binds"}]}]}
